The test system of this data set is T1, Recombinant human Keap1.
T1 construct: His (N); made in house; host or cells: E. coli BL21 (DE3)
The experiment in a line: LC/MS/MS detection of cysteines modified by PBA. The data set is classed as binding.

`C=C(COC(=O)C=Cc1ccc(O)c(O)c1)C(O)COC1OC(CO)C(O)C(O)C1O` (centres unmarked) [PBA, pubescenoside A]: where the note is “MS study”, the “covalent modifications at Cys77, Cys23, Cys38, Cys273 and Cys236” value is on record as “similarly discovered”. Also, where the note is “recombinant Keap1 incubated with PBA, MS analysis”, the “increase in mass of chymotrypic peptide covering Cys434” value is listed as 442.14.

These data come from article PMC7738871, “Covalent modification of Keap1 at Cys77 and Cys434 by pubescenoside a suppresses oxidative stress-induced NLRP3 inflammasome activation in myocardial ischemia-reperfusion injury” (Theranostics, 2021).
